From patent US10426168B2, “Agent for controlling noxious arthropods” (Sumitomo Chemical Company, Limited, priority 2015, dated 2019)
Some results were stated once for a whole list of compounds, not compound by compound. For some of these results: At least one structure is not confirmed: it was looked up by name or label, or the drawing left a doubt.

Columns and labels:
Format in all cases: in vivo
[1] = tested on: common house mosquitoes (Culex pipers pallens); assay: Test Example 1: knock-down of adult female common house mosquitoes by spray; conditions: 0.5% w/v in isopropyl alcohol/kerosine=1/9, 0.5 mL sprayed; 10 adult females; counted after 2 minutes, 5 minutes, and 15 minutes
[2] = tested on: female adult housefly (Muscadomestica); assay: Test Example 3: mortality of female adult housefly on treated filter paper with sucrose bait; conditions: 500 ppm diluted solution, 0.7 ml on filter paper; 10 female adults; after 24 hours
[3] = tested on: common house mosquitoes (Culex pipens pallens); assay: Test Example 4: knock-down of adult common house mosquitoes by spray, low concentration; conditions: 0.00625% w/v in isopropyl alcohol/kerosin=1/9, 0.5 mL sprayed; 10 adults; counted after 2 minutes, 5 minutes, and 15 minutes
[4] = tested on: German cockroaches (Blattella germanica); assay: Test Example 5: knock-down of adult German cockroaches by spray; conditions: 0.5% w/v in isopropyl alcohol/kerosin=1/9, 1.5 mL sprayed; 10 adults (5 males and 5 females); counted after 2 minutes, 5 minutes, and 15 minutes

SMILES | Knocked-down ratio [1] [°] | Mortality [2] [%] | Knocked-down ratio [3] [%] | Knocked-down ratio [4] [%]
CC(C)(N)CNC(=O)c1cc(COCc2ccccc2)on1 [(1)] | ≥ 80 | ≥ 80 | ≥ 80 | 
CC(C)(N)CNC(=O)c1cc(COCc2ccc3ccccc3c2)on1 [(2)] | ≥ 80 | ≥ 80 | ≥ 80 | 
CCCCc1cc(C(=O)NCC(C)(C)N)no1 [(3)] | ≥ 80 |  | ≥ 80 | 
CCCCc1cc(C(=O)NC(C)(C)C(C)(C)N)no1 [(4)] | ≥ 80 |  |  | 
CCCCc1cc(C(=O)NCC(C)(C)CN)no1 [(5)] | ≥ 80 |  | ≥ 80 | 
CCCc1cc(C(=O)NCC(C)(C)N)no1 [(6)] | ≥ 80 |  |  | 
CC(C)(N)CNC(=O)c1cc(COCc2ccc3c(c2)OCO3)on1 [(7)] |  |  | ≥ 80 | ≥ 80
CC(C)(N)CNC(=O)c1cc(COCc2ccc(OC(F)(F)F)cc2)on1 [(10)] |  |  |  | ≥ 80
COc1ccc(COCc2cc(C(=O)NCC(C)(C)N)no2)cc1 [(12)] |  |  | ≥ 80 | ≥ 80
CC(C)(CN)CNC(=O)c1cc(COCc2ccc3c(c2)OCO3)on1 [(13)] |  |  | ≥ 80 | ≥ 80
CC(C)(CN)CNC(=O)c1cc(COCc2ccc3c(c2)CCCC3)on1 [(14)] |  |  | ≥ 80 | 
CC(C)(CN)CNC(=O)c1cc(COCc2ccc(Br)c(F)c2)on1 [(15)] |  |  | ≥ 80 | ≥ 80
CC(C)(CN)CNC(=O)c1cc(COCc2ccc(OC(F)(F)F)cc2)on1 [(16)] | ≥ 80 |  |  | 
Cc1cccc(COCc2cc(C(=O)NCC(C)(C)CN)no2)c1 [(17)] |  |  | ≥ 80 | ≥ 80
COc1ccc(COCc2cc(C(=O)NCC(C)(C)CN)no2)cc1 [(18)] | ≥ 80 |  |  | 
CC(C)(N)CNC(=O)c1cc(Cc2ccccc2)on1 [(19)] |  |  | ≥ 80 | ≥ 80

SMILES | Knocked-down ratio [1] [°] | Mortality [2] [%] | Knocked-down ratio [3] [%] | Knocked-down ratio [4] [%]
CC(C)(N)CNC(=O)c1cc(Cc2cccc(F)c2)on1 [(20)] |  |  | ≥ 80 | ≥ 80
CC(C)(CN)CNC(=O)c1cc(Cc2ccccc2)on1 [(21)] | ≥ 80 |  |  | 
CC(C)(CN)CNC(=O)c1cc(Cc2cccc(F)c2)on1 [(22)] | ≥ 80 |  |  | 
CC(C)(N)CNC(=O)c1cc(COc2ccccc2)on1 [(23)] |  |  |  | ≥ 80
CC(C)(N)CNC(=O)c1cc(COc2cc(F)cc(Br)c2)on1 [(24)] |  |  | ≥ 80 | ≥ 80
CC(C)(CN)CNC(=O)c1cc(COc2ccccc2)on1 [(26)] |  |  |  | ≥ 80
CC(C)(CN)CNC(=O)c1cc(COc2cc(F)cc(Br)c2)on1 [(27)] |  |  |  | ≥ 80
CC(C)(N)CNC(=O)c1cc(CCC(F)(F)F)on1 [(29)] |  |  |  | ≥ 80
CCCCCCCCc1cc(C(=O)NCC(C)(C)N)no1 [(30)] |  |  |  | ≥ 80
CC(C)(N)CNC(=O)c1cc(CCC2CCCC2)on1 [(31)] |  |  |  | ≥ 80
CC(C)(N)CNC(=O)c1cc(CC2CC2)on1 [(32)] |  |  |  | ≥ 80
CC(C)(CN)CNC(=O)c1cc(CCC(F)(F)F)on1 [(33)] | ≥ 80 |  |  | 
CCCCCCCCc1cc(C(=O)NCC(C)(C)CN)no1 [(34)] | ≥ 80 |  |  | 
CC(C)(CN)CNC(=O)c1cc(CCC2CCCC2)on1 [(35)] | ≥ 80 |  |  | 
CC(C)(CN)CNC(=O)c1cc(CC2CC2)on1 [(36)] |  |  | ≥ 80 | ≥ 80
